The results in this text go back to US20240190903.

Results from cells or extracts need not show a direct contact. Tags and fusion partners may be left off the protein sequences shown. For part of these data: Construct, isoform or probe ends are uncertain for at least one entry.

In data set [1] the target is T1, ERG (HA-tagged, expressed in 293T) (UniProt P11308).
T1 sequence (looked up, limits assumed): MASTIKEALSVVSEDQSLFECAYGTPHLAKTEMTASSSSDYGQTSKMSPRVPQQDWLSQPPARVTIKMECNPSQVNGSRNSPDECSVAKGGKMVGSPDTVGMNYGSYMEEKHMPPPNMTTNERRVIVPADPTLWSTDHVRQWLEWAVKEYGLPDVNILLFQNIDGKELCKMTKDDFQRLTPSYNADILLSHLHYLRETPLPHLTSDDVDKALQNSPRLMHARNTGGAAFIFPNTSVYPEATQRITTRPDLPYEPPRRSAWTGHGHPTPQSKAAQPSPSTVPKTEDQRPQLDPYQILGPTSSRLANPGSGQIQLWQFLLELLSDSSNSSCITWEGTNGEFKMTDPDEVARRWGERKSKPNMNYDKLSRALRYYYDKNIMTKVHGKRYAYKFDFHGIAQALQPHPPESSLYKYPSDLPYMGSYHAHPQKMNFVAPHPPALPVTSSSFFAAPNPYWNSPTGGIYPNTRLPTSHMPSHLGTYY
As to the kind of experiment: pull-down. Particulars: reverse strand 5'-linked E3 ligase ligand (P1-P6); streptavidin pull-down from 293T cells transfected with 100 nM O'PROTAC; six O'PROTACs pooled here; protein in a lysate after overexpression; protein details: HA (pCMV-HA-ERG); label: 5'-biotin on forward strand.

For data set [2], the target named is T2, ERG (endogenous, VCaP nuclear extract + full-length and TMPRSS2-ERG T1/E4) (Homo sapiens) (UniProt P11308).
T2 sequence (looked up): T1 sequence (looked up, limits assumed)
As to the kind of experiment: EMSA. Particulars: protein in an extract, label: 5'-biotin on forward strand. A general note: Mobility shift assays separate free from complexed probe on a gel.

As for ACGGACCGGAAATCCGGTT (double strand), the binding result in data set [1] was “binds”.
Turning to “ACGGACCGGAAATCCGGTT (double strand) [Biotin-ERG OP-C-N1]”, the binding result in data set [2] (reverse strand 5'-L7-pomalidomide (CRBN ligand)) is “binds”.
In the case of “ACGGACCGGAAATCCGGTT (double strand) [Biotin-ERG OP-C-P1]”, the binding result in data set [2] (reverse strand 5'-L1-phthalic acid) was “binds”.
